Laboratory results as given in the supplement of paper PMC7877785.
± gives the uncertainty stated by the source. Many entries were measured with a wide error.

Assay: self-splicing fitness, log relative to wild type (ln ratio); higher = more splicing; Tetrahymena group I intron in knt gene, E. coli kanamycin selection, DiMSum; sequences stand for … in CUCUCU…GGAGGGAAAAGUUAUCAGGCAUGCACCUGGUAGCUAGUCUUUAAACCAAUAGAUUGCAUCGGUUUAAAAGGCAAGACCGUCAAAUUGCGGGAAAGGGGUCAACAGCCGUUCAGUACCAAGUCUCAGGGGAAACUUUGAGAUGGCCUUGCAAAGGGUAUGGUAAUAAGCUGACGGACAUGGUCCUAACCACGCAGCCAAGUCCUAAGUCAACAGAUCUUCUGUUGAUAUGGAUGCAGUUCACAGACUAAAUGUCGGUCGGGGAAGAUGUAUUCUUCUCAUAAGAUAUAGUCGGACCUCUCCUUAAUGGGAGCUAGCGGAUGAAGUGAUGCAACACUGGAGCCGCUGGGAACUAAUUUGUAUGCGAAAGUAUAUUGAUUAGUUUUGGAGUACUCGUGGUCG
Summary of the method: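 Six replicate transformations of E. coli BL21(DE3) with a pET-22b(+) library were grown overnight at 37°C or 30°C. The library randomised all eight P1ex-region intron nucleotides, the intron lying in the knt kanamycin-resistance gene, and plates were LB agar with or without 25 μg/mL kanamycin plus 100 μg/mL carbenicillin, 50 μM IPTG and 0.2% rhamnose. Pooled colonies were amplicon-sequenced on an Illumina HiSeq 2500, and fitness is the DiMSum error-weighted combination of wild-type-normalised replicate fold changes, kanamycin versus none.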

Row | Sequence | self-splicing fitness (ln) (30 °C) | self-splicing fitness (ln) (37 °C)
1 | GUAUAGCAAUAUUACGCUAC | -1.24 ± 0.69 | -1.87 ± 0.6
2 | CUUGAGCAAUAUUACGCCUC | -1.86 ± 0.64 | 
3 | AGGUAGCAAUAUUACGAUGA | -0.948 ± 0.016 | -0.562 ± 0.034
4 | UCUAAGCAAUAUUACGGACU | -3.51 ± 0.28 | -2.84 ± 0.27
5 | GCCCAGCAAUAUUACGGCCG |  | -1.1 ± 0.92
6 | AUGGAGCAAUAUUACGGUAC | -4.49 ± 1 | -1.79 ± 0.58
7 | AAUAAGCAAUAUUACGUGAG | -0.815 ± 0.065 | -0.198 ± 0.093
8 | ACGUAGCAAUAUUACGCUUC | -3.97 ± 1 | -2.78 ± 0.53
9 | AGGGAGCAAUAUUACGCAGG | -4.51 ± 0.51 | -0.965 ± 0.24
10 | UAAGAGCAAUAUUACGACCU |  | -2.13 ± 0.58
11 | AUCGAGCAAUAUUACGCCCC |  | -2.22 ± 0.68
12 | CUUGAGCAAUAUUACGGAGA | -4.17 ± 0.52 | -2.03 ± 0.54
13 | UUGGAGCAAUAUUACGUUCU | -4.43 ± 0.6 | 
14 | GGUGAGCAAUAUUACGGCAG |  | -1.08 ± 0.61
15 | ACAGAGCAAUAUUACGACCA |  | -1.76 ± 0.55
16 | CCCUAGCAAUAUUACGGACC |  | -1.61 ± 0.84
17 | AGUAAGCAAUAUUACGGUCG | -1.95 ± 0.083 | -0.559 ± 0.087
18 | GAGCAGCAAUAUUACGCCCA | -0.299 ± 0.18 | 0.255 ± 0.26
19 | CUACAGCAAUAUUACGAUCG | -0.0619 ± 0.061 | 0.736 ± 0.085
20 | AACGAGCAAUAUUACGAUAC | -2.52 ± 0.37 | -1.97 ± 0.46
21 | UAGAAGCAAUAUUACGAGUA | -1.31 ± 0.096 | -0.33 ± 0.12
22 | UCAGAGCAAUAUUACGUCCU |  | -3.26 ± 0.52
23 | UCGGAGCAAUAUUACGCCGA |  | -4.47 ± 0.72
24 | GUCGAGCAAUAUUACGGCCG | -1.96 ± 0.57 | -0.351 ± 0.51
25 | CUGGAGCAAUAUUACGACCC |  | -0.693 ± 1
26 | UUGGAGCAAUAUUACGUUGC | -4.15 ± 0.74 | 
27 | GGAAAGCAAUAUUACGCUUU | -4.89 ± 0.59 | 
28 | CUUGAGCAAUAUUACGUUAA | -2.47 ± 0.16 | -2.6 ± 0.22

As entered above.
Value of CUGGAGCAAUAUUACGACCC under self-splicing fitness (ln) (37 °C): -0.693 ± 1
Value of GGAAAGCAAUAUUACGCUUU under self-splicing fitness (ln) (30 °C): -4.89 ± 0.59
Value of AGGGAGCAAUAUUACGCAGG under self-splicing fitness (ln) (37 °C): -0.965 ± 0.24
Value of GCCCAGCAAUAUUACGGCCG under self-splicing fitness (ln) (37 °C): -1.1 ± 0.92

(further entries)

Row | Sequence | self-splicing fitness (ln) (30 °C) | self-splicing fitness (ln) (37 °C)
29 | AUUCAGCAAUAUUACGGGCG | -0.695 ± 0.1 | -0.0814 ± 0.12
30 | GUUAAGCAAUAUUACGUUGC | -2.53 ± 0.77 | -2.65 ± 0.54
31 | UCUUAGCAAUAUUACGCAAC | -3.39 ± 1 | 
32 | UGACAGCAAUAUUACGCGGC | -6.56 ± 1 | -2.23 ± 1.1
33 | CUCGAGCAAUAUUACGAGUU | -4.82 ± 0.59 | 
34 | UUGGAGCAAUAUUACGUAUC |  | -2.91 ± 0.73
35 | CUCGAGCAAUAUUACGUAAU | -3.14 ± 0.62 | 
36 | GAGUAGCAAUAUUACGUCCG | -4.08 ± 0.53 | -2.9 ± 0.53
37 | CCACAGCAAUAUUACGCGCG | -1.02 ± 0.042 | -0.161 ± 0.056
38 | GGGAAGCAAUAUUACGAGGU |  | -3.94 ± 0.73
39 | GGGGAGCAAUAUUACGCCCG | -1.97 ± 1.2 | -1.13 ± 1.2
40 | GAAGAGCAAUAUUACGCCAC | -3.28 ± 0.41 | -2.48 ± 0.41
41 | GCGGAGCAAUAUUACGAAGA | -1.93 ± 1.2 | -1.93 ± 0.58
42 | AUCGAGCAAUAUUACGUUUC | -4.74 ± 0.59 | 
43 | GUAUAGCAAUAUUACGCUCC | -3.12 ± 1.1 | -1.29 ± 1.2
44 | AUCCAGCAAUAUUACGUAGG | -2.91 ± 0.14 | -1.49 ± 0.12
45 | UCCGAGCAAUAUUACGAGUU |  | -3.47 ± 0.52
46 | AUGUAGCAAUAUUACGAUAU | -0.909 ± 0.11 | 0.222 ± 0.14
47 | AACUAGCAAUAUUACGUAUG | -3.11 ± 0.11 | -1.22 ± 0.11
48 | AGGAAGCAAUAUUACGCCAG | -2.89 ± 0.18 | -1.81 ± 0.22
49 | CUUAAGCAAUAUUACGAACA | -3.62 ± 0.6 | -2.63 ± 1
50 | UUCGAGCAAUAUUACGCGGC | -3.76 ± 0.73 | 
51 | GAUGAGCAAUAUUACGAGAG | -4.94 ± 0.51 | 
52 | GGGAAGCAAUAUUACGACCU |  | -2.13 ± 0.8
53 | AGGAAGCAAUAUUACGUCAG | -2.97 ± 0.25 | -2.41 ± 0.33
54 | GGAAAGCAAUAUUACGGGGC | -3.54 ± 0.28 | -0.864 ± 0.21
55 | CCAUAGCAAUAUUACGGGAC | -4.29 ± 0.52 | 
